Data as given in PubChem BioAssay AID686938 (Drosophila RNAi Screening Center, 2013)

Purpose: 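Knock-downs reducing store-operated calcium influx in Drosophila cells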 (primary screen)
Cells: Drosophila S2R+ cells
Reagents: long dsRNA against Drosophila genes, about 0.25 µg dsRNA per well, roughly 10,000 cells
Time to read-out: 5 days of knock-down before the calcium assay
Conditions: thapsigargin (SERCA pump blocker) to empty calcium stores; entry signal taken 4 min after adding it
Read-out: 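Duplicate raw fluo-4 intensities per well from a plate reader, at rest and four minutes after thapsigargin emptied calcium stores; entry-to-rest ratio filled for only some wells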
Scale: calcium entry signal: higher = stronger calcium signal after store depletion; resting calcium signal: higher = higher resting calcium signal
Rule for the call: 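Hit if the duplicate-averaged plate z-score for entry over resting signal is under −3; wells with weak total dye signal (Fmax z < −2) or more than 5 off-targets removed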
Meaning of the calls: active = strongly reduced calcium entry; inactive = no strong reduction
In all, the deposit lists about 23,000 reagents; below is a random part of those that have a named target and a result. Of all reagents, 75 (0.33%) got an active call. 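Raw plate signals without normalisation; calls rest on plate z-scores that were not deposited; ratio present for only 364 wells.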 Entries without a mark were called inactive. The numbers tell different reagents against one gene apart. No sequences are given here. The record does not give: the dose of the treatment.

Which result is listed for Atg16 #1?
calcium entry signal, replicate 1 (fluorescence units): 2.86e7; calcium entry signal, replicate 2 (fluorescence units): 4.11e7; resting calcium signal, replicate 1 (fluorescence units): 1.29e7; resting calcium signal, replicate 2 (fluorescence units): 1.81e7

For Atg16 #2, what was measured?
calcium entry signal, replicate 1 (fluorescence units): 3.63e7; calcium entry signal, replicate 2 (fluorescence units): 5.60e7; resting calcium signal, replicate 1 (fluorescence units): 1.91e7; resting calcium signal, replicate 2 (fluorescence units): 2.33e7

With Atg16 #3, what was measured?
calcium entry signal, replicate 1 (fluorescence units): 4.32e7; calcium entry signal, replicate 2 (fluorescence units): 6.00e7; resting calcium signal, replicate 1 (fluorescence units): 2.26e7; resting calcium signal, replicate 2 (fluorescence units): 2.41e7

With Nadk1b #1, what does the deposit list?
calcium entry signal, replicate 1 (fluorescence units): 4.04e7; calcium entry signal, replicate 2 (fluorescence units): 4.23e7; resting calcium signal, replicate 1 (fluorescence units): 2.01e7; resting calcium signal, replicate 2 (fluorescence units): 1.84e7

What did the screen give for Nadk1b #2?
calcium entry signal, replicate 1 (fluorescence units): 2.49e7; calcium entry signal, replicate 2 (fluorescence units): 3.03e7; resting calcium signal, replicate 1 (fluorescence units): 1.23e7; resting calcium signal, replicate 2 (fluorescence units): 1.50e7

For Nadk1b #3, what does the deposit list?
calcium entry signal, replicate 1 (fluorescence units): 3.64e7; calcium entry signal, replicate 2 (fluorescence units): 3.64e7; resting calcium signal, replicate 1 (fluorescence units): 1.89e7; resting calcium signal, replicate 2 (fluorescence units): 1.73e7

What did the screen give for CG6972?
calcium entry signal, replicate 1 (fluorescence units): 4.23e7; calcium entry signal, replicate 2 (fluorescence units): 2.91e7; resting calcium signal, replicate 1 (fluorescence units): 1.98e7; resting calcium signal, replicate 2 (fluorescence units): 1.32e7

What did the screen give for Rpn13?
calcium entry signal, replicate 1 (fluorescence units): 3.77e7; calcium entry signal, replicate 2 (fluorescence units): 3.88e7; resting calcium signal, replicate 1 (fluorescence units): 2.16e7; resting calcium signal, replicate 2 (fluorescence units): 2.01e7

2 of these entries, set out differently.
{"target gene":"Atg16","reagent":3,"calcium entry signal, replicate 1 (fluorescence units)":4.32e7,"calcium entry signal, replicate 2 (fluorescence units)":6.00e7,"resting calcium signal, replicate 1 (fluorescence units)":2.26e7,"resting calcium signal, replicate 2 (fluorescence units)":2.41e7}
{"target gene":"Nadk1b","reagent":1,"calcium entry signal, replicate 1 (fluorescence units)":4.04e7,"calcium entry signal, replicate 2 (fluorescence units)":4.23e7,"resting calcium signal, replicate 1 (fluorescence units)":2.01e7,"resting calcium signal, replicate 2 (fluorescence units)":1.84e7}

Additional results:
For aurB #1, how do the results read?
calcium entry signal, replicate 1 (fluorescence units): 2.71e7; resting calcium signal, replicate 1 (fluorescence units): 1.86e7

For aurB #2, how do the results read?
calcium entry signal, replicate 1 (fluorescence units): 3.38e7; calcium entry signal, replicate 2 (fluorescence units): 4.20e7; resting calcium signal, replicate 1 (fluorescence units): 2.06e7; resting calcium signal, replicate 2 (fluorescence units): 2.25e7

For CG31872 #1, what does the deposit list?
calcium entry signal, replicate 1 (fluorescence units): 3.34e7; calcium entry signal, replicate 2 (fluorescence units): 4.16e7; resting calcium signal, replicate 1 (fluorescence units): 2.07e7; resting calcium signal, replicate 2 (fluorescence units): 1.95e7

With CG31872 #2, what was measured?
calcium entry signal, replicate 1 (fluorescence units): 3.66e7; calcium entry signal, replicate 2 (fluorescence units): 4.33e7; resting calcium signal, replicate 1 (fluorescence units): 1.88e7; resting calcium signal, replicate 2 (fluorescence units): 1.88e7

For Est-P, what does the deposit list?
calcium entry signal, replicate 1 (fluorescence units): 2.76e7; calcium entry signal, replicate 2 (fluorescence units): 3.60e7; resting calcium signal, replicate 1 (fluorescence units): 1.54e7; resting calcium signal, replicate 2 (fluorescence units): 1.57e7

With Pfdn5, what was measured?
calcium entry signal, replicate 1 (fluorescence units): 4.11e7; calcium entry signal, replicate 2 (fluorescence units): 2.76e7; resting calcium signal, replicate 1 (fluorescence units): 1.89e7; resting calcium signal, replicate 2 (fluorescence units): 1.22e7
